According to PMC8213385, “Development of a Fluorescent Assay to Search New Drugs Using Stable tdTomato-Leishmania, and the Selection of Galangin as a Candidate With Anti-Leishmanial Activity” (Frontiers in Cellular and Infection Microbiology, 2021):

System: intracellular amastigotes of L. amaz/tc3
Test: Fluorescence assay in the macrophage-amastigote model (Raw 264.7 infected with L. amaz/tc3)
Type: cell-based, Leishmania (Leishmania) amazonensis
Settings: infected Raw 264.7 macrophages
Description: Furthermore, the efficacy of MI was also determined against intracellular amastigotes of L. amaz/tc3 and L. amaz/wt. Raw 264.7 macrophages were plated in 96-well black plate (5 x 10^4 cells/well) and in eight well Lab-Tek tissue culture slides (6.6 x 10^4 cells/ml) (Nunc, USA). The cells were infected with promastigotes in stationary phase of L. amaz/tc3 and L. amaz/wt (1:20 ratio) at 33°C, 5% CO2. After incubation, the infected macrophages were washed to remove non-internalized parasites with PBS plus P-S. New RPMI-1640 medium with different concentrations of MI (20 to 0.62 µg/ml) was added to each well and incubated at 33°C, 5% CO2 during 48 h. The anti-leishmanial activity of MI was determined by measuring the fluorescence of intracellular amastigotes of L. amaz/tc3 in a plate reader (Tecan, Männedorf, Switzerland). The viability was calculated as mentioned above, and the IC50 was also estimated. Simultaneously, the leishmanicidal activity of MI against L. amaz/wt was determined by the microscopy test. In this case, the infected macrophages were stained with Diff Quik (Biopur S.R.L., Rosario, Argentina) and the number of intracellular amastigotes was determined in 200-500 macrophages in treated and control cultures per slide under the immersion lens microscope (100x) (Leitz Wetzlar, Germany). The infection index (II) and the % infectivity (I) were calculated by the following formulas: II = IM × A, where IM= infected macrophages (%), A= number of amastigotes per infected macrophages; and I(%)=IIT/IIc×100, where IIT= infection index in treated cultures, IIC= infection index in control cultures ([Ayres et al., 2008]). The IC50 of MI was calculated.
The flavonoids anti-leishmanial activity was also evaluated against intracellular amastigotes. […] After treatment, the fluorescence of intracellular amastigotes of L. amaz/tc3 was measured in a plate reader (Tecan, Männedorf, Switzerland). The viability was determined as was described for MI (fluorescent assay). The selectivity index (SI) (CC50 for macrophages/IC50 for Leishmania) was calculated.

| SMILES | Concentration at which background fluorescence increased (interference with tdTomato readout) |
| --- | --- |
| O=c1c(O)c(-c2ccc(O)c(O)c2)oc2cc(O)ccc12 [FI, fisetin] | ≥ 30 µM |
| O=c1c(O)c(-c2ccccc2)oc2cc(O)cc(O)c12 [GAL, Galangin] | ≥ 30 µM |
| O=c1c(O)c(-c2ccc(O)cc2O)oc2cc(O)cc(O)c12 [MO, morin] | ≥ 75 µM |
